The values are deposited in ChEMBL (CHEMBL3988442, “University of Dundee, Small-Polar-MMV Screening Library” (2021)).

Toxoplasma: 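Assay of Toxoplasma gondii numbers, read through their beta-galactosidase reporter with a colour substrate. Concentration: 10 µM. Higher reads as fewer parasites (inferred from which compounds were picked for retests). About 67,000 compounds were tested under these conditions; 0.38% (about 260) showed 50% or more at least once.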
T. brucei: 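Whole-parasite assay of Trypanosoma brucei over 72 hours; the read-out is not stated. Compounds at 30 µM. Higher reads as stronger inhibition (inferred: compounds with an IC50 in retests scored well above the rest). Values scatter widely below zero; nearly all retest evidence comes from the higher of the two concentrations used. About 64,000 compounds were tested under these conditions; 1.5% (about 940) showed 50% or more at least once.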

Results are given as percent effect.
The record does not define 0% and 100%; most values in the screen are far below 50% and negative numbers occur (in some assays of this library far below -100).
Compounds were drawn at random from those tested, without regard to their results.

Result for O=C(c1ccnc(C2CCNCC2)c1)N1CCCC(CO)C1 (stereo not shown) was Toxoplasma: 10.97%; T. brucei: 2.059%.
Result for Cc1csc2nc3n(c(=O)c12)CCN(Cc1c[nH]cn1)CC3.Cl was Toxoplasma: 4.548%; T. brucei: -17.14%.
Result for CCS(=O)(=O)c1ncc(CN2CCOCC2)n1CCCc1ccccc1 was Toxoplasma: -6.142%; T. brucei: -76.52%.
Result for CC1CCN(C(=O)C2(Cc3cc(C4CCOC4)no3)CCNCC2)CC1.Cl (stereo not shown) was Toxoplasma: 5.103%.
Result for Cc1n[nH]c(C)c1CCc1nc(C2CC2)n[nH]1 was Toxoplasma: 14.79%; T. brucei: -60.17%.
Result for COc1ccccc1NC(=O)NCCCC(=O)Nc1cn[nH]c1 was Toxoplasma: -8.468%; T. brucei: -374%.
Result for [H][C@@]12CN(Cc3scnc3C)C[C@H](C(=O)NC3CCCC3)[C@]1([H])CCO2 was Toxoplasma: 0.6657%; T. brucei: 2.909%.
Result for [H][C@]12CC[C@@]3(N=C(CC)N(CC(C)C)C3=O)[C@@]1([H])CN(S(=O)(=O)N(C)C)C2 was Toxoplasma: 0.5543%; T. brucei: -35.61%.
Result for Cc1n[nH]c(C2CN(C(=O)c3scnc3C)CCO2)n1 (stereo not shown) was Toxoplasma: -27.53%; T. brucei: -20.91%.
Result for COCCN(Cc1ccc(C)cc1)Cc1nccn1C was Toxoplasma: -4.179%; T. brucei: 10.55%.
Result for CCS(=O)(=O)NCCNCc1cc(F)ccc1Br was Toxoplasma: 10.64%; T. brucei: -85.09%.
Result for CN(C)Cc1ccc(C(=O)N2CCCC(COc3ccc(F)cc3)C2)o1 (stereo not shown) was Toxoplasma: 10.98%; T. brucei: -41.01%.
Result for CCC(CN1CCOCC1)n1cncc1-c1ccc2c(c1)CCN2CC.Cl (stereo not shown) was Toxoplasma: 6.197%; T. brucei: -29.56%.
Result for CCOC(=O)c1coc(N2CCN(Cc3ccc(C)cc3)C(=O)C2)n1 was Toxoplasma: -2.229%; T. brucei: -50.43%.
Result for CCn1cc(C(=O)Nc2ccccc2C(=O)OC)cn1 was Toxoplasma: 14.06%; T. brucei: -23.71%.
Result for COC(=O)c1cc(NCC(=O)NC(N)=O)cc(C(F)(F)F)c1 was Toxoplasma: 3.464%; T. brucei: -38.29%.
Result for CC(CCNC(=O)N(C)CC1CCOCC1)N1CCCCC1 (stereo not shown) was Toxoplasma: 5.042%; T. brucei: -10%.
Result for CC(C)(NCCOc1ccc(CC#N)cc1)c1nccs1 was Toxoplasma: -4.618%; T. brucei: 4.333%.
Result for OC[C@@H](O)CN(CCC(F)(F)F)c1ncccn1 was Toxoplasma: -4.922%; T. brucei: -15.16%.
Result for O=C(Cn1nc(Br)nc1Br)N1CCCCC1 was Toxoplasma: 15.58%; T. brucei: -16.5%.
Result for CCc1cc(=O)[nH]c2nnc(SCC(=O)OC)n12 was Toxoplasma: -0.5473%; T. brucei: -75.19%.
Result for CC(C)[C@@H]1CN(Cc2ccsc2)C[C@H]1NS(=O)(=O)N(C)C was Toxoplasma: -4.363%; T. brucei: -4.534%.
Result for O=C(O)C(F)(F)F.[H][C@@]12C[C@@H](c3nc(C)no3)O[C@]1([H])CN(C(=O)C1CCN(C)CC1)C2 was Toxoplasma: 0.4258%; T. brucei: 2.656%.
Result for CN(Cc1cccc(F)c1)C(=O)CN1CCCC1CCc1ccccc1 (stereo not shown) was Toxoplasma: -3.824%; T. brucei: -1.241%.
Result for O=C(O)C(F)(F)F.O=C(O)C(F)(F)F.c1ccc(CN2CCc3nnc(CN4CCCCC4)n3CC2)nc1 was Toxoplasma: -3.55%; T. brucei: -30.89%.
Result for Cc1ncsc1CCC(=O)NCc1cc2n(n1)CCNC2 was Toxoplasma: 5.726%; T. brucei: -41.15%.
Result for CCNc1ncc(C(=O)N[C@H](C(N)=O)c2ccccc2)cn1 was Toxoplasma: 5.005%; T. brucei: -97.88%.

For reference, 3 entries once more:

SMILES,Toxoplasma,T. brucei
COc1ccccc1NC(=O)NCCCC(=O)Nc1cn[nH]c1,-8.468%,-374%
CCn1cc(C(=O)Nc2ccccc2C(=O)OC)cn1,14.06%,-23.71%
Cc1csc2nc3n(c(=O)c12)CCN(Cc1c[nH]cn1)CC3.Cl,4.548%,-17.14%